In US20260116921A1 (priority 2018, published 2026):

Tests used:
[1] = general procedure: Fmoc solid-phase peptide synthesis; Rink Amide MBHA resin (0.57 or 0.66 mmol/g) for C-terminal amides; pre-loaded Wang resin for C-terminal acids; HBTU/DIEA (PyAOP/DIEA for some couplings); Oxyma/DIC; details: whole synthesis, scale 6.66 mmol
[2] = general procedure: Fmoc solid-phase peptide synthesis; Rink Amide MBHA; HBTU/DIEA (PyAOP/DIEA for some couplings); Oxyma/DIC; details: whole synthesis, scale 6.66 mmol, acetate salt

Ac-[Pen]-NT-[W(7-Me)]-[Lys(Ac)]-[Pen]-Phe[4-(2-aminoethoxy)]-[2-Nal]-[α-MeLys]-[Lys(Ac)]-N-[(D)Lys]-NH2
final HPLC purity ([1]; analytical RP-HPLC, acetate salt): 97%
isolated yield ([1]; overall, acetate salt): ˜25%
isolated mass ([1]; TFA salt): 3.83 g
isolated mass [2]: 3.24 g
